Laboratory results: PMC5996148
The list shows a part of the results.

Experiments:
Test in all cases: protein microarray (ProtoArray v5.0), streptavidin-Alexa Fluor 647
Conditions in all cases: 3'-biotin; 20 mM Tris (pH 7.5), 5 mM MgCl2, 100 mM KCl, 0.1% Tween-20, A/T-rich and random oligonucleotide blockers; temperature not stated; high values mean tight binding
C17orf48 (human) = test system: C17orf48 (human)
C17orf56 (human) = test system: C17orf56 (human)
C19orf12 (human) = test system: C19orf12 (human)
C1orf162 (human) = test system: C1orf162 (human)
C1orf38 (human) = test system: C1orf38 (human)
C1orf51 (human) = test system: C1orf51 (human)
C1orf91 (human) = test system: C1orf91 (human)
C20orf114 (human) = test system: C20orf114 (human)
C20orf141 (human) = test system: C20orf141 (human)
C20orf142 (human) = test system: C20orf142 (human)
C20orf160 (human) = test system: C20orf160 (human)
C20orf3 (human) = test system: C20orf3 (human)
C21orf2 (human) = test system: C21orf2 (human)
C21orf33 (human) = test system: C21orf33 (human)
C21orf7 (human) = test system: C21orf7 (human)
C21orf91 (human) = test system: C21orf91 (human)
C2orf18 (human) = test system: C2orf18 (human)
C2orf33 (human) = test system: C2orf33 (human)
C2orf43 (human) = test system: C2orf43 (human)
C4BPB (human) = test system: C4BPB (human)

Question: How did the binding signal (C17orf48 (human)) turn out when “GGGGACAGGGGTATGGGGAGGGG [G4-3 biotinylated (CtG)]” was run?
Answer: Its binding signal is -0.333 z-score.

Question: And the binding signal (C17orf56 (human))?
Answer: The binding signal was -0.318 z-score.

Question: And the binding signal (C19orf12 (human))?
Answer: Its binding signal is -0.343 z-score.

Question: What about the binding signal (C1orf162 (human)) of the same sequence?
Answer: The binding signal was -0.312 z-score.

Question: What about the binding signal (C1orf38 (human)) of the same sequence?
Answer: Its binding signal is -0.32 z-score.

Question: What about the binding signal (C1orf51 (human)) of the same sequence?
Answer: Its binding signal is -0.292 z-score.

Question: What about the binding signal (C1orf91 (human)) of the same sequence?
Answer: Its binding signal is -0.334 z-score.

Question: And the binding signal (C20orf114 (human))?
Answer: The binding signal was -0.32 z-score.

Question: What about the binding signal (C20orf141 (human)) of the same sequence?
Answer: Its binding signal is -0.315 z-score.

Question: And the binding signal (C20orf142 (human))?
Answer: The binding signal was -0.333 z-score.

Question: What about the binding signal (C20orf160 (human)) of the same sequence?
Answer: Its binding signal is -0.329 z-score.

Question: What about the binding signal (C20orf3 (human)) of the same sequence?
Answer: Its binding signal is -0.329 z-score.

Question: What about the binding signal (C21orf2 (human)) of the same sequence?
Answer: Its binding signal is -0.292 z-score.

Question: And the binding signal (C21orf33 (human))?
Answer: Its binding signal is -0.335 z-score.

Question: What about the binding signal (C21orf7 (human)) of the same sequence?
Answer: The binding signal was -0.329 z-score.

Question: And the binding signal (C21orf91 (human))?
Answer: Its binding signal is -0.325 z-score.

Question: What about the binding signal (C2orf18 (human)) of the same sequence?
Answer: The binding signal was -0.317 z-score.

Question: And the binding signal (C2orf33 (human))?
Answer: The binding signal was -0.333 z-score.

Question: And the binding signal (C2orf43 (human))?
Answer: The binding signal was -0.338 z-score.

Question: What about the binding signal (C4BPB (human)) of the same sequence?
Answer: Its binding signal is -0.309 z-score.
